Laboratory results: the supplement of paper PMC7666118
Some of the results follow.

Protein sequences, listed by entry. Tags and fused reporters are not part of them. Lines headed by an entry give the natural chain unless they say otherwise; changes in a name come on top.
UniProt O14967: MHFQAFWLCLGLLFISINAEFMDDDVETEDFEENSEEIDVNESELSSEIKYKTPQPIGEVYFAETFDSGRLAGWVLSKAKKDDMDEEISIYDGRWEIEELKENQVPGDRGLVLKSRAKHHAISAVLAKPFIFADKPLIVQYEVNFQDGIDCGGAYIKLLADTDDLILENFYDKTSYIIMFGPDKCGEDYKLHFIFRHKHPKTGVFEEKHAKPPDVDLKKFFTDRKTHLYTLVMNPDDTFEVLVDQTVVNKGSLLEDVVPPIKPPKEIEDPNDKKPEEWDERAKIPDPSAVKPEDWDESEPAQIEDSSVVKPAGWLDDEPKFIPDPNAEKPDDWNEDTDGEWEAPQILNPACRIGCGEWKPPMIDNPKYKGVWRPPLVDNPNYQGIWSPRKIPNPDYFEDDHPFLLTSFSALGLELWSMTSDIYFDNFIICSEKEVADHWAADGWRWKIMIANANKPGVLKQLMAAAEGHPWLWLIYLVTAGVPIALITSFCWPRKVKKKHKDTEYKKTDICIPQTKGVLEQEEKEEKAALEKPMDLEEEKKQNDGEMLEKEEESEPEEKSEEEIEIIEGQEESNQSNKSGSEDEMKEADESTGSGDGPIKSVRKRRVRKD
UniProt P08962, whole entry: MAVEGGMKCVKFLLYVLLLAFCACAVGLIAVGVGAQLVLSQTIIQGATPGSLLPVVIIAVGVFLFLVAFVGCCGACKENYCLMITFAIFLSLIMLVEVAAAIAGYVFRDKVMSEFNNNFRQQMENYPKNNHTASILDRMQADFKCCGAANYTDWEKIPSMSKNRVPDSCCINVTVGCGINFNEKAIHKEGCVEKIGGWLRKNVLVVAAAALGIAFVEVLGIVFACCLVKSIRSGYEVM
UniProt O76031, whole entry: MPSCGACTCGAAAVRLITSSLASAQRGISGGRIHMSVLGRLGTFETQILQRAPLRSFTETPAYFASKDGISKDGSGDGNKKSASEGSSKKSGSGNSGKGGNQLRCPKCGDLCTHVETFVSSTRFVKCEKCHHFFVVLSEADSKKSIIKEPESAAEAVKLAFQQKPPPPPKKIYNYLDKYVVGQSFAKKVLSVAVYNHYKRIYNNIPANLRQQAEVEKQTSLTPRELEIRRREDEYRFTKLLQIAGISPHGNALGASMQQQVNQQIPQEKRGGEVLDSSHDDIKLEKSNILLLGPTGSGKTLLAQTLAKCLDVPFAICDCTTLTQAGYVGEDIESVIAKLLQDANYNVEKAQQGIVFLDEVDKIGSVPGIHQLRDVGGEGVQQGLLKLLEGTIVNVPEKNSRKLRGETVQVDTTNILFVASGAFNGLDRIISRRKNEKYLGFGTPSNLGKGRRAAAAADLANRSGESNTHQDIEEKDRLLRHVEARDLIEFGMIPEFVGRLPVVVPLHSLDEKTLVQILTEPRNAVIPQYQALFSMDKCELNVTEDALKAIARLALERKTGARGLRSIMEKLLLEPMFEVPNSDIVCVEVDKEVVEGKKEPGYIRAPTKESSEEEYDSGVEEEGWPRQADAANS
UniProt Q99439: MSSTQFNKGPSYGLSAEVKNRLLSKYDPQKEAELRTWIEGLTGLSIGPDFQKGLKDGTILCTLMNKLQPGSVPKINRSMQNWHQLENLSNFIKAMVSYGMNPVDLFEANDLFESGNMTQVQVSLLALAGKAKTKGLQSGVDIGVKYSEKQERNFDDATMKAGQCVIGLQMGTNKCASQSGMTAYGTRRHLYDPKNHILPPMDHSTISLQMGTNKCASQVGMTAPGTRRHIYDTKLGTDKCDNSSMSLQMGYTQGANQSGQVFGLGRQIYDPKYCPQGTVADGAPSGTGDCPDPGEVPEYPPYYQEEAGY
UniProt Q9BW85: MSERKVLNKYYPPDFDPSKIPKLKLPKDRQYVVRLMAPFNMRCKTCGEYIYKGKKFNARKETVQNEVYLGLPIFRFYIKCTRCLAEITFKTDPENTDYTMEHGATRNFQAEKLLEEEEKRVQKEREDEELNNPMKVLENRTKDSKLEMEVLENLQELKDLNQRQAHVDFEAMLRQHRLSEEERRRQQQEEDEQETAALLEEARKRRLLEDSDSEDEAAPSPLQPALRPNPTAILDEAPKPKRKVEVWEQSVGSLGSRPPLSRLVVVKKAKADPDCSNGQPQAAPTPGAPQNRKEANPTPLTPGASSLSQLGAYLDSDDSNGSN
UniProt Q8NFW8: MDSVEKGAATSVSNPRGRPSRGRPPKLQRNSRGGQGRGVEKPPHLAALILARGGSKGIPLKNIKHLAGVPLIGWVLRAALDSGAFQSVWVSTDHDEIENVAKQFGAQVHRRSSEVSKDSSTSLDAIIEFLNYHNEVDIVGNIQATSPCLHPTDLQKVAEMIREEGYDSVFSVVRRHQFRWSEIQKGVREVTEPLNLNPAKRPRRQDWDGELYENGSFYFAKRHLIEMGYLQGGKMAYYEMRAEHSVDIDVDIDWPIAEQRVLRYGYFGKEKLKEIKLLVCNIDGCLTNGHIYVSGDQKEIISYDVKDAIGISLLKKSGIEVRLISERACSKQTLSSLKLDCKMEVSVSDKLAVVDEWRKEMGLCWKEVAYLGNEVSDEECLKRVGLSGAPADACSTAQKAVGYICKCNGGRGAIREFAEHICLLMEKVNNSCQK
UniProt Q9Y232: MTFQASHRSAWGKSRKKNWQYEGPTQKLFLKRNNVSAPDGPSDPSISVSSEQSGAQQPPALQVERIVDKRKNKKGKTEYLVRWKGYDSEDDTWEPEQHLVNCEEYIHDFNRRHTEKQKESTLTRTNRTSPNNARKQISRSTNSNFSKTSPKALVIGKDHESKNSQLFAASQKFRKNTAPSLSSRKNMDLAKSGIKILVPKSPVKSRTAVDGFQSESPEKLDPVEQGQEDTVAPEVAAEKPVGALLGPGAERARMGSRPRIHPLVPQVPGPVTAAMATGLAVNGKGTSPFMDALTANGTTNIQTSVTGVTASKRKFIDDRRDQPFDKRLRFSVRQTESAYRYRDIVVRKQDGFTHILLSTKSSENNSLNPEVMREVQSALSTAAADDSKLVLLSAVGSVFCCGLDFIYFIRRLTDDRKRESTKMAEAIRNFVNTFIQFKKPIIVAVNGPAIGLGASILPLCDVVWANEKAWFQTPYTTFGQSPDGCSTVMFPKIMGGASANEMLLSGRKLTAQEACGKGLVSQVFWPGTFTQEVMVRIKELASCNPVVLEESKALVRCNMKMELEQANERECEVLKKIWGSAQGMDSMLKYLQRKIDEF
UniProt Q8N4Q1: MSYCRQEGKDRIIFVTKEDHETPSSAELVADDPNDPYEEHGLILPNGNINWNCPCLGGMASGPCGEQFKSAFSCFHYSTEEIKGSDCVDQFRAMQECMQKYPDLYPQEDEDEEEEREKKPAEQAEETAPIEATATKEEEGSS
UniProt O14647: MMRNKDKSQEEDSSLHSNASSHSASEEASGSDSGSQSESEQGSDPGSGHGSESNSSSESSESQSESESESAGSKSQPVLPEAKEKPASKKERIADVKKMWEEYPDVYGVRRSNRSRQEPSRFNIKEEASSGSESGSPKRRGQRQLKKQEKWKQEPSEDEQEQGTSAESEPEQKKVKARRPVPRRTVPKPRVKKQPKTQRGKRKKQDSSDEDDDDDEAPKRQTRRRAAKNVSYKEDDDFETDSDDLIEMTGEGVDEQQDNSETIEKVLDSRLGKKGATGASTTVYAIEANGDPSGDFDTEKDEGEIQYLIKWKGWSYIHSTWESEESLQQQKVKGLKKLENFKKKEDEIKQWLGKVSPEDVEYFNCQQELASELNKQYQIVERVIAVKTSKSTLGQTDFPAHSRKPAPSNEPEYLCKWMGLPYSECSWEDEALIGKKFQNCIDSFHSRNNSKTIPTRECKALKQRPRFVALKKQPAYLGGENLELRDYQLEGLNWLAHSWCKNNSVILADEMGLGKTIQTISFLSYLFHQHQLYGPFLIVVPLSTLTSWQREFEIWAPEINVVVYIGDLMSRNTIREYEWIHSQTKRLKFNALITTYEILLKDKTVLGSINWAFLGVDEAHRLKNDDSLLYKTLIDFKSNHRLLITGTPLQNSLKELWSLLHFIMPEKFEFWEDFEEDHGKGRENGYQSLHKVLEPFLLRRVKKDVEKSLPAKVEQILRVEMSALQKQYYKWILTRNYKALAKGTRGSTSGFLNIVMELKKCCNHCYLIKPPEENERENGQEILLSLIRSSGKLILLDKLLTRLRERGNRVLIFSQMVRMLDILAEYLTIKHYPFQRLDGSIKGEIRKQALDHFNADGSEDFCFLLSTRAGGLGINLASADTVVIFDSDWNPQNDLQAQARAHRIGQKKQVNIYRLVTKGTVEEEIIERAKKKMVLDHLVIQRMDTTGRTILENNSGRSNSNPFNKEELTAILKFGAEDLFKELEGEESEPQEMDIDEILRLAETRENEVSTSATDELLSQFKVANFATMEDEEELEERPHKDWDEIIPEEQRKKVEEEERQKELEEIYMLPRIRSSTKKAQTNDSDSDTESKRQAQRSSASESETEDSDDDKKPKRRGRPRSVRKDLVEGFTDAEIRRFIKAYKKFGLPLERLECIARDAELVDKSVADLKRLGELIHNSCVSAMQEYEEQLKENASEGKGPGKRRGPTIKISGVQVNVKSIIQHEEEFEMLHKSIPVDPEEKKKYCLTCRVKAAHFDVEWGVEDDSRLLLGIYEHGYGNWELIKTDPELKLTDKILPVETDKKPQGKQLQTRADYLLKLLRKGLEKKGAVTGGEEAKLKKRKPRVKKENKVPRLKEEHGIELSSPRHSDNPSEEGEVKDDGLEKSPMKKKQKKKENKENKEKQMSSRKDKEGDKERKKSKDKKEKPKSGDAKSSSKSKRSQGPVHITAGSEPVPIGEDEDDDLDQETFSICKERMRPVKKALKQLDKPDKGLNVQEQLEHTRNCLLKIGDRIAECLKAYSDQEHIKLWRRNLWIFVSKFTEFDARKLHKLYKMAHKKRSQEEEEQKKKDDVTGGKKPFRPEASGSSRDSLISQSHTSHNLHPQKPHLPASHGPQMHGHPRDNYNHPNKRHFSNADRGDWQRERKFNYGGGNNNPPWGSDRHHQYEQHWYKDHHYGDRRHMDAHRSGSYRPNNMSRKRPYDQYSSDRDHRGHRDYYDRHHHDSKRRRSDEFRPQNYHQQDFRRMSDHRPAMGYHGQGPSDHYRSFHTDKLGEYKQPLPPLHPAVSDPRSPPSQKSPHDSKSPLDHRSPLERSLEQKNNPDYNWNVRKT
UniProt Q16204: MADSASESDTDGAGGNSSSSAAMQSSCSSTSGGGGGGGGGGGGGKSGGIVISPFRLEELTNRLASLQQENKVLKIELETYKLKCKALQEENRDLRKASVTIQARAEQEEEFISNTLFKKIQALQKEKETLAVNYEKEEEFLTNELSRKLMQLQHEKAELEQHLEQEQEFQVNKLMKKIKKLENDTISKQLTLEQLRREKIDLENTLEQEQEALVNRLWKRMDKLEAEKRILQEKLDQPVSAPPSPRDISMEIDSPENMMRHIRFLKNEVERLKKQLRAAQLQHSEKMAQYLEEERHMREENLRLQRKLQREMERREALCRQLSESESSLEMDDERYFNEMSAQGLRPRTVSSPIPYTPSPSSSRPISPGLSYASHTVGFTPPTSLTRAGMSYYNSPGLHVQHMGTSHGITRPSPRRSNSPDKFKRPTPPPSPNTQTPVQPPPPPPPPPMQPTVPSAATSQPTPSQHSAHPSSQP

What follows are targets tested with COc1ccc(Cn2ccc3ccc(C(=O)NO)cc32)cc1 (assay: dose-dependent thermal stabilisation call (2D-TPP, DLPTP, 10% FDR) (binary (1 = stabilised)); higher = stabilised by the compound). Details: system: HL-60 intact cells; concentration range 0.04-10 µM.

Row | Target | dose-dependent thermal stabilisation call
1 | CLGN (UniProt O14967) | inactive: 0
2 | CLCC1 (UniProt Q96S66) | inactive: 0
3 | CCDC43 (UniProt Q96MW1) | inactive: 0
4 | CD63 (UniProt P08962) | inactive: 0
5 | CLPX (UniProt O76031) | inactive: 0
6 | CD320 (UniProt Q9NPF0) | inactive: 0
7 | CNN2 (UniProt Q99439) | inactive: 0
8 | CCDC94 (UniProt Q9BW85) | inactive: 0
9 | CMAS (UniProt Q8NFW8) | inactive: 0
10 | COMMD10 (UniProt Q9Y6G5) | inactive: 0
11 | CINP (UniProt Q9BW66) | inactive: 0
12 | CHMP1B (UniProt Q7LBR1) | inactive: 0
13 | COG4 (UniProt Q9H9E3) | inactive: 0
14 | CLSTN1 (UniProt O94985) | inactive: 0
15 | CHCHD10 (UniProt Q8WYQ3) | inactive: 0
16 | CCDC58 (UniProt Q4VC31) | inactive: 0
17 | CDYL (UniProt Q9Y232) | inactive: 0
18 | CHD4 (UniProt Q14839) | inactive: 0
19 | CCDC44 (UniProt Q9BSH4) | inactive: 0

Row | Target | dose-dependent thermal stabilisation call
20 | CCDC25 (UniProt Q86WR0) | inactive: 0
21 | CNPY2 (UniProt Q9Y2B0) | inactive: 0
22 | CEP97 (UniProt Q8IW35) | inactive: 0
23 | CCT4 (UniProt P50991) | inactive: 0
24 | CLPTM1L (UniProt Q96KA5) | inactive: 0
25 | CLDND1 (UniProt Q9NY35) | inactive: 0
26 | CHCHD4 (UniProt Q8N4Q1) | active: 1
27 | CLIC1 (UniProt O00299) | inactive: 0
28 | CENPL (UniProt Q8N0S6) | inactive: 0
29 | CETN3 (UniProt O15182) | inactive: 0
30 | CHSY1 (UniProt Q86X52) | inactive: 0
31 | CENPC1 (UniProt Q03188) | inactive: 0
32 | COG8 (UniProt Q96MW5) | inactive: 0
33 | CHD8 (UniProt Q9HCK8) | inactive: 0
34 | CHD2 (UniProt O14647) | inactive: 0
35 | CD44 (UniProt P16070) | inactive: 0
36 | CFL1 (UniProt P23528) | inactive: 0
37 | CIRH1A (UniProt Q969X6) | inactive: 0
38 | CCDC6 (UniProt Q16204) | inactive: 0

Two entries from above, as labelled records:
CENPL (UniProt Q8N0S6)
  dose-dependent thermal stabilisation call: inactive: 0
CETN3 (UniProt O15182)
  dose-dependent thermal stabilisation call: inactive: 0
